This passage reports binding results from paper PMC1570494.

The chains behind the UniProt entries cited, without tags or fusion partners. Where a name states a change or a piece, a line headed by the entry shows the natural chain unless it says otherwise. Residues count along the entry.
UniProt P04608: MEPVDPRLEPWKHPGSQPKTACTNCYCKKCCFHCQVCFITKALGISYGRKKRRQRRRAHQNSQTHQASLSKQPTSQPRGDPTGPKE
UniProt P51532: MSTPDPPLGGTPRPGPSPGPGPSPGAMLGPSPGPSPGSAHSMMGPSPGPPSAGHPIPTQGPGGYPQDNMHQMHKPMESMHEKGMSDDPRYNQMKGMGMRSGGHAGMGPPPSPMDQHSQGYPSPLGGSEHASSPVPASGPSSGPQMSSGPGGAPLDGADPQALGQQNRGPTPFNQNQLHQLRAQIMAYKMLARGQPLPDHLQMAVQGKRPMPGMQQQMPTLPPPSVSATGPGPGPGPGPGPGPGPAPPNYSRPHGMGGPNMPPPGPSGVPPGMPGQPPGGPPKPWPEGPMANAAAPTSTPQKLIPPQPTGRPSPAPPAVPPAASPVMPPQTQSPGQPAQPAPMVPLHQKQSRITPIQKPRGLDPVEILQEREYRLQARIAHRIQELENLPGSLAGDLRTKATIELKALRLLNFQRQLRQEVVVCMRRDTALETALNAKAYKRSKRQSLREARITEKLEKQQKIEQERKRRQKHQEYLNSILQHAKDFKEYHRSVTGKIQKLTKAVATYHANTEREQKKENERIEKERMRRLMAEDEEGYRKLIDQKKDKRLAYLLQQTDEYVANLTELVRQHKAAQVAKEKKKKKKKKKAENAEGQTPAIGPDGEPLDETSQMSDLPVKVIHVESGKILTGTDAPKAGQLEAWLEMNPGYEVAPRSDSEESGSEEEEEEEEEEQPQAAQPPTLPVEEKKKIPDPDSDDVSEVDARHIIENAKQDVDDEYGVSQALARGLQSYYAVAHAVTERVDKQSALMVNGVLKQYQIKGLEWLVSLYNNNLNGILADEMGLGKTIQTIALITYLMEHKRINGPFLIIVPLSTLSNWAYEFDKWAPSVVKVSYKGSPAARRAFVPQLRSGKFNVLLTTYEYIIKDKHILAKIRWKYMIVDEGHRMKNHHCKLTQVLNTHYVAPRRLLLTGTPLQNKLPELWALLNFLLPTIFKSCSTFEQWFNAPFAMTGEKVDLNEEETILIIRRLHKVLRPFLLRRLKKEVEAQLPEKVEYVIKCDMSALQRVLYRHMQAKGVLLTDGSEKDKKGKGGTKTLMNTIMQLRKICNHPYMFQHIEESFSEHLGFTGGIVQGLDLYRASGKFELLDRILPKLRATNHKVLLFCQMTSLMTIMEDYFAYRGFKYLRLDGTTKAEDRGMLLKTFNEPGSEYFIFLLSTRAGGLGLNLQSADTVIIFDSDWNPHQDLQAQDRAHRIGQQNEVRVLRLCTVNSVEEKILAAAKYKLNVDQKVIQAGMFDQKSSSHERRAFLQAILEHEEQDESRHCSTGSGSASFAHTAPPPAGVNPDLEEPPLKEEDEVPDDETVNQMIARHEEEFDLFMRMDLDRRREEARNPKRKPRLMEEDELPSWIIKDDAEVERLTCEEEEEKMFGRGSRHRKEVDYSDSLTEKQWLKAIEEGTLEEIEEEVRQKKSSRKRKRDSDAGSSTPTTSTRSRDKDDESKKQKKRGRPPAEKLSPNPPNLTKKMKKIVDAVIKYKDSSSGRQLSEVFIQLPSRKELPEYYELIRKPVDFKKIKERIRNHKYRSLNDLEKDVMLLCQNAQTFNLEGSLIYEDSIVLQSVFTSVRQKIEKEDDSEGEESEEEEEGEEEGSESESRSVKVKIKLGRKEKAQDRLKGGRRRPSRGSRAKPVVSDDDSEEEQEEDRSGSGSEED
BRG1-N (N-terminal residues 1–282): residues 1-282 of P51532
UniProt O60563: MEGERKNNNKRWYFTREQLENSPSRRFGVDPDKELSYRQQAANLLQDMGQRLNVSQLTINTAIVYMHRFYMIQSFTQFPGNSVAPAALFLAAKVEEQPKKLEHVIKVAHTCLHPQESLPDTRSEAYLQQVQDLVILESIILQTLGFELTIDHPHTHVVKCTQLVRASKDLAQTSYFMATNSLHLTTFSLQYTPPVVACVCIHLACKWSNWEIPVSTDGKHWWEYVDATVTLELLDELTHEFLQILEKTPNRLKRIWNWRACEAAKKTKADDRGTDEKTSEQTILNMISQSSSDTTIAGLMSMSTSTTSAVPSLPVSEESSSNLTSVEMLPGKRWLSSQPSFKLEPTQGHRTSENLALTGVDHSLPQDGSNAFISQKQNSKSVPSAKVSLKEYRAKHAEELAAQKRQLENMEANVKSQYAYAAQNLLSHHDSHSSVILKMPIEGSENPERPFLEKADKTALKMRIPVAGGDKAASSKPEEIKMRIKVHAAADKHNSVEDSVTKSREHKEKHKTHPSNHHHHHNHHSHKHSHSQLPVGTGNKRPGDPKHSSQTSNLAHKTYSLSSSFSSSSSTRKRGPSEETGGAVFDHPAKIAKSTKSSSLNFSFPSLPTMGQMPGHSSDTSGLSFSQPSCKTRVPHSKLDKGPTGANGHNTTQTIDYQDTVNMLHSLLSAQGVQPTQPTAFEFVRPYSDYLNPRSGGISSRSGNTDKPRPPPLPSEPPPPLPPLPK

Experiment [1] concerns the target GST-Tat, wild-type, unacetylated (HIV-1) (UniProt P04608). Kind of experiment: pull-down; only the target purified.
Experiment [2] addresses acetylated GST-Tat, wild-type (incubated with p300 and acetyl-CoA) (HIV-1) (UniProt P04608). Kind of experiment: pull-down; only the target purified.
The target in experiment [3] is BRG1-N (N-terminal residues 1–282) (UniProt P51532). In words: pull-down; only the target purified.
Experiment [4] has as its target GST-Tat, wild-type, unacetylated (HIV-1) (UniProt P04608). In words: pull-down; both purified.

No constants are given. Whether binding was seen depends on the method and setting. For some assays here: In cells and extracts the contact can be indirect. Some results given as binding are weak or reduced against the parent protein; the word gives no strength.

Consider “35S-BRG1, wild-type (from UniProt P51532 1-1647)”, for which the binding result in experiment [1] and in experiment [2] was “binds” in each case.
Take “35S-Tat, acetylated (from UniProt P04608 1-86)”: the binding entry in experiment [3] is listed as “binds”.
Consider “35S-Tat, unacetylated (from UniProt P04608 1-86)”, for which the binding entry in experiment [3] is on record as “binds”.
For the substance “cyclin T1/cdk9 complex, purified (from UniProt O60563 1-726; P50750 1-372)”, the binding entry in experiment [4] is “binds”.
